The entries are a selection whose mix differs from that of the whole data set. The calls were merged from several studies; some rest on single wells. The list shows a part of the results.
What was measured:
Conditions in all cases: stereoisomer not certain
OR4F4 = test system: T1, OR4F4
T1 sequence (whole entry): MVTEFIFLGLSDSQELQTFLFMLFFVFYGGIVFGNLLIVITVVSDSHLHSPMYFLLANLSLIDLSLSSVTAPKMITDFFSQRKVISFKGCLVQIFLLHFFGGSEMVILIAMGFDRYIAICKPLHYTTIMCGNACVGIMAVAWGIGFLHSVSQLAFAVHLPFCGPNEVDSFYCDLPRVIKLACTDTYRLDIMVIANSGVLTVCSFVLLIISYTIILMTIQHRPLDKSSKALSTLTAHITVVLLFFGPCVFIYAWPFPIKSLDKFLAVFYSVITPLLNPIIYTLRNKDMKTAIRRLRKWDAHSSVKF
How it was run: (§1)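 Assay methods differ from source to source, frequently being transient luciferase assays in mammalian cell lines. For each receptor–molecule pair, the label responsive (active) applies when the original authors judged the measured signal statistically different from baseline, and non-responsive (inactive) applies otherwise.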

OR4F6 (Homo sapiens) = biological target: T2, OR4F6 (Homo sapiens) (UniProt Q8NGB9)
T2 sequence (whole entry): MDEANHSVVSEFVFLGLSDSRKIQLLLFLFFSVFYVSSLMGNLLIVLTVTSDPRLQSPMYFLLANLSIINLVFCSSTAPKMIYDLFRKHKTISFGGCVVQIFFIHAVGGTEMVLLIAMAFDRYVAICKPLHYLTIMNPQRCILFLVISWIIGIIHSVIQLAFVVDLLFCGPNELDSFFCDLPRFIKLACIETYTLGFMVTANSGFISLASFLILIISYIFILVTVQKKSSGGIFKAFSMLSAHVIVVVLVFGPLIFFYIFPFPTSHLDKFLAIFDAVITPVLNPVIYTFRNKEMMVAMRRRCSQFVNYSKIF
How it was run: as §1

OR4K13 (Homo sapiens) = biological target: T3, OR4K13 (Homo sapiens) (UniProt Q8NH42)
T3 sequence (whole entry): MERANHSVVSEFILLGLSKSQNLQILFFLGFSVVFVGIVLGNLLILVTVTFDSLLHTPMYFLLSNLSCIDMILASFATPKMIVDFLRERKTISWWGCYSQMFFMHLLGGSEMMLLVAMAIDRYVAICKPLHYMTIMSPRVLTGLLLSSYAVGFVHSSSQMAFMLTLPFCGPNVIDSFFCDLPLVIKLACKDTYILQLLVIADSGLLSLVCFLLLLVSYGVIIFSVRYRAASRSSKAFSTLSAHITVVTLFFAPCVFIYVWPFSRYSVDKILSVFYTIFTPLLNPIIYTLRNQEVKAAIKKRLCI
How it was run: as §1

OR4K14 (Homo sapiens) = biological target: T4, OR4K14 (Homo sapiens) (UniProt Q8NGD5)
T4 sequence (whole entry): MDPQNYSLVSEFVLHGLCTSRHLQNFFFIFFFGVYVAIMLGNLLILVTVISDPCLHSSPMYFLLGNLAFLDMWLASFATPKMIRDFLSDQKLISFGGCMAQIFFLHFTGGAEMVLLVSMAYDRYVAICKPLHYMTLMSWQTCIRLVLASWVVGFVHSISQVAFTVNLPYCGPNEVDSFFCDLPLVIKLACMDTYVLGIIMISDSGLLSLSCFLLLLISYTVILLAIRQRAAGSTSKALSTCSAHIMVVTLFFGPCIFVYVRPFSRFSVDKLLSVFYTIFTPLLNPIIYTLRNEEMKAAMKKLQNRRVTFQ
How it was run: as §1

OR4K1 = test system: T5, OR4K1
T5 sequence (whole entry): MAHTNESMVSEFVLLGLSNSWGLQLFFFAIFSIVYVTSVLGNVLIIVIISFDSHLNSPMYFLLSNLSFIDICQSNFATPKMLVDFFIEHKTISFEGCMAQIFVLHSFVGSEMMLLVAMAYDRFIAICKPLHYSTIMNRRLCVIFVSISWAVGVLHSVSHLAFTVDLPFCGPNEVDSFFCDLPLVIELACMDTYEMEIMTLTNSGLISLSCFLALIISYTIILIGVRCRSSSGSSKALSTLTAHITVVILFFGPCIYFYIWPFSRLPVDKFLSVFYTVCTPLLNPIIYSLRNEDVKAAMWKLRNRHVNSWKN
How it was run: as §1

OR4K2 (Homo sapiens) = biological target: T6, OR4K2 (Homo sapiens) (UniProt Q8NGD2)
T6 sequence (whole entry): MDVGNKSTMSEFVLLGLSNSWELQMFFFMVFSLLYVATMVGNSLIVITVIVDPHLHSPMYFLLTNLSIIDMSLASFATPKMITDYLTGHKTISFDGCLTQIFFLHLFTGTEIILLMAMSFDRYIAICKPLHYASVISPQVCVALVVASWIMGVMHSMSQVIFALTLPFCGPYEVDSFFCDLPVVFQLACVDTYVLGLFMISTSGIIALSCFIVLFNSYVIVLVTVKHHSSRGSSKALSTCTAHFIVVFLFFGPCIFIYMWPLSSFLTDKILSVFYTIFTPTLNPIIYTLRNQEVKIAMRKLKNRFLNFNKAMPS
How it was run: as §1

OR4K3 = test system: T7, OR4K3
T7 sequence (whole entry): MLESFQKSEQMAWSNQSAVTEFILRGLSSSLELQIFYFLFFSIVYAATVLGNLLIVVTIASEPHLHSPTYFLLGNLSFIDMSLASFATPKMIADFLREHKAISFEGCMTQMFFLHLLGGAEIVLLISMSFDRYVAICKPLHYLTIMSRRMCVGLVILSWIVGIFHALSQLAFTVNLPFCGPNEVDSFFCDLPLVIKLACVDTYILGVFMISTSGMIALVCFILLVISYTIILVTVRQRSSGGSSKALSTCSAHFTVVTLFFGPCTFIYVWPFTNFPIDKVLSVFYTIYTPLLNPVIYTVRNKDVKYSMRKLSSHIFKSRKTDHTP
How it was run: as §1

OR4K5 (Homo sapiens) = biological target: T8, OR4K5 (Homo sapiens) (UniProt Q8NGD3)
T8 sequence (whole entry): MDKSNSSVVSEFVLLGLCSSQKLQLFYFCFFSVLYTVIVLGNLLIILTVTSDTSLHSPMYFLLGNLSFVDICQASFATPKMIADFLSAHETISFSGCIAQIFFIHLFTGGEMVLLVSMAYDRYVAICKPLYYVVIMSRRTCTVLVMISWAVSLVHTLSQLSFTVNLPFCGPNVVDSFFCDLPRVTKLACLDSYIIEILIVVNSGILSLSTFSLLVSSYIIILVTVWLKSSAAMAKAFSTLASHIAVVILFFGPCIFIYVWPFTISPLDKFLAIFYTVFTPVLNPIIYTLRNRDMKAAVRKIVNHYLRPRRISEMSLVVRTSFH
How it was run: as §1

OR4KF = test system: T9, OR4KF
T9 sequence (whole entry): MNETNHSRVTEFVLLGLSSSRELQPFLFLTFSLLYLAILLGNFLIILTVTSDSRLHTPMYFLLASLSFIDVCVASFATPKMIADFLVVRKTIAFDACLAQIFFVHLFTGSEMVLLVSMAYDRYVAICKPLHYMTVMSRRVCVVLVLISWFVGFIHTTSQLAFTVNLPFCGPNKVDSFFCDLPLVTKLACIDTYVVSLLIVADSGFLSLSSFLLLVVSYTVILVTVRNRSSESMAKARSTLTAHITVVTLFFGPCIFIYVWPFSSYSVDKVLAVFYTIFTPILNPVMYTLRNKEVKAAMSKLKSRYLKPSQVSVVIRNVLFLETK
How it was run: as §1

OR4KH = test system: T10, OR4KH
T10 sequence (whole entry): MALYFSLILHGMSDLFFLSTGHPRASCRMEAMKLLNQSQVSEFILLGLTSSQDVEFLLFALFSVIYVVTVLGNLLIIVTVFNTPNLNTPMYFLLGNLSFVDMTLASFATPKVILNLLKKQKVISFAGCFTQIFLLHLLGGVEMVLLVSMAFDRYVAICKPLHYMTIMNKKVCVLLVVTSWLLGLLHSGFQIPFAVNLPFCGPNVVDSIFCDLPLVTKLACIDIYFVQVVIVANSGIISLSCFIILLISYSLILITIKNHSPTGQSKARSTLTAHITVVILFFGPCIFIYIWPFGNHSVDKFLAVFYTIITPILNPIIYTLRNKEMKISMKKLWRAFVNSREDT
How it was run: as §1

`CS` was tested, and the “odorant receptor agonist call” value (OR4F4) was “inactive”, the “odorant receptor agonist call” value (OR4F6 (Homo sapiens)) was “inactive” and the “odorant receptor agonist call” value (OR4K13 (Homo sapiens)) was “inactive”. The “odorant receptor agonist call” value (OR4K14 (Homo sapiens)) was “inactive”, the “odorant receptor agonist call” value (OR4K1) was “inactive” and the “odorant receptor agonist call” value (OR4K2 (Homo sapiens)) was “inactive”. For the same compound, the “odorant receptor agonist call” value (OR4K3) was “inactive”, the “odorant receptor agonist call” value (OR4K5 (Homo sapiens)) was “inactive” and the “odorant receptor agonist call” value (OR4KF) was “inactive”. The “odorant receptor agonist call” value (OR4KH) was “inactive”.
`CCCCOC(C)=O` was tested, and the “odorant receptor agonist call” value (OR4F4) was “inactive”, the “odorant receptor agonist call” value (OR4F6 (Homo sapiens)) was “inactive” and the “odorant receptor agonist call” value (OR4K13 (Homo sapiens)) was “inactive”. The “odorant receptor agonist call” value (OR4K14 (Homo sapiens)) was “inactive”, the “odorant receptor agonist call” value (OR4K1) was “inactive” and the “odorant receptor agonist call” value (OR4K2 (Homo sapiens)) was “inactive”. The “odorant receptor agonist call” value (OR4K3) was “inactive”, the “odorant receptor agonist call” value (OR4K5 (Homo sapiens)) was “inactive” and the “odorant receptor agonist call” value (OR4KF) was “inactive”. The “odorant receptor agonist call” value (OR4KH) was “inactive”.
`CCC(C)=O` was tested, and the “odorant receptor agonist call” value (OR4F4) was “active”, the “odorant receptor agonist call” value (OR4F6 (Homo sapiens)) was “inactive” and the “odorant receptor agonist call” value (OR4K13 (Homo sapiens)) was “inactive”. For the same compound, the “odorant receptor agonist call” value (OR4K14 (Homo sapiens)) was “inactive”, the “odorant receptor agonist call” value (OR4K1) was “inactive” and the “odorant receptor agonist call” value (OR4K2 (Homo sapiens)) was “inactive”. For the same compound, the “odorant receptor agonist call” value (OR4K3) was “inactive”, the “odorant receptor agonist call” value (OR4K5 (Homo sapiens)) was “inactive” and the “odorant receptor agonist call” value (OR4KF) was “inactive”. The “odorant receptor agonist call” value (OR4KH) was “inactive”.
